In article doi:10.1101/598128 (bioRxiv, 2019) one finds binding data, which are given here for 1 molecule.

Assay in all cases: two-hybrid
The target in test [1] is T1, Orc1 (yeast two-hybrid fusion) (budding yeast) (UniProt P54784).
T1 sequence: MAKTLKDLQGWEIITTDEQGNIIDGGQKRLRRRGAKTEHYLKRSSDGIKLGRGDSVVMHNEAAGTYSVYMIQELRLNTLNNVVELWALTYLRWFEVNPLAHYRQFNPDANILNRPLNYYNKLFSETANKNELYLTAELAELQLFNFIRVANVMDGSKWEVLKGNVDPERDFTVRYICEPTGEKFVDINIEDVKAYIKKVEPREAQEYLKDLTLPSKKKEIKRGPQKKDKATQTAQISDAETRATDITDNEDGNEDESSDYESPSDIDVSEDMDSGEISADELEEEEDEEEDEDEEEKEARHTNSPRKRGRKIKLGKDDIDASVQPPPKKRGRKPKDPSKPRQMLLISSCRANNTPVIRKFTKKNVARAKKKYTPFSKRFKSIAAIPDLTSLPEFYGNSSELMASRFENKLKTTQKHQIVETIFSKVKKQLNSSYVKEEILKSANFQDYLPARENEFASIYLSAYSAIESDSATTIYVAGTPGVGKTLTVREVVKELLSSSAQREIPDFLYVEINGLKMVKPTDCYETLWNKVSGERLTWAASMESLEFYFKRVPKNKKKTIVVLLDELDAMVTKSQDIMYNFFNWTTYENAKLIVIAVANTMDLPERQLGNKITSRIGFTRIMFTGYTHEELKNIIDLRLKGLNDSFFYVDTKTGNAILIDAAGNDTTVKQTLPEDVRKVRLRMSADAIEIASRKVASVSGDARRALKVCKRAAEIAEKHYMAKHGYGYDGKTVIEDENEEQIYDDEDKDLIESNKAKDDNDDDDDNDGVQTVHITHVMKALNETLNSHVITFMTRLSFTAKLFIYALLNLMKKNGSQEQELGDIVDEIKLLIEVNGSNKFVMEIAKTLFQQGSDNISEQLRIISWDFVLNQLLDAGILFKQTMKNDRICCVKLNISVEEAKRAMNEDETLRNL

The target of test [2] is T2, Orc3 (yeast two-hybrid fusion) (budding yeast) (UniProt P54790).
T2 sequence: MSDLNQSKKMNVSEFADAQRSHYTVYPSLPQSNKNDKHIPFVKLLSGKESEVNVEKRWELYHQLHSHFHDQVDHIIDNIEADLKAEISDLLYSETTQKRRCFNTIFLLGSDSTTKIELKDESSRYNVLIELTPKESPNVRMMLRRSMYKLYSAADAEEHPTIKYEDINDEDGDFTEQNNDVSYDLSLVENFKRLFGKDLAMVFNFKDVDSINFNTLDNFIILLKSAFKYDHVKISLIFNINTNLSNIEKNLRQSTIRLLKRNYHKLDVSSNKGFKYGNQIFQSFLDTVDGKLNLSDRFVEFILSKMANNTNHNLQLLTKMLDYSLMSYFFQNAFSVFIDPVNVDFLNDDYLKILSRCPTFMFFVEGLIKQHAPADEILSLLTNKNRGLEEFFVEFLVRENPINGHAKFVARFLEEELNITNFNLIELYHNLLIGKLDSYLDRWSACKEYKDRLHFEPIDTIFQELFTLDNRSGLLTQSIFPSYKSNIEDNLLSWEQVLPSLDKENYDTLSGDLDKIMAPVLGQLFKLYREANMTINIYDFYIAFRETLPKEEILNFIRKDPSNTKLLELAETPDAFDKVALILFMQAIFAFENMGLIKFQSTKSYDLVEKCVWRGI

The target in test [3] is T3, Orc4 (yeast two-hybrid fusion) (budding yeast) (UniProt P54791).
T3 sequence: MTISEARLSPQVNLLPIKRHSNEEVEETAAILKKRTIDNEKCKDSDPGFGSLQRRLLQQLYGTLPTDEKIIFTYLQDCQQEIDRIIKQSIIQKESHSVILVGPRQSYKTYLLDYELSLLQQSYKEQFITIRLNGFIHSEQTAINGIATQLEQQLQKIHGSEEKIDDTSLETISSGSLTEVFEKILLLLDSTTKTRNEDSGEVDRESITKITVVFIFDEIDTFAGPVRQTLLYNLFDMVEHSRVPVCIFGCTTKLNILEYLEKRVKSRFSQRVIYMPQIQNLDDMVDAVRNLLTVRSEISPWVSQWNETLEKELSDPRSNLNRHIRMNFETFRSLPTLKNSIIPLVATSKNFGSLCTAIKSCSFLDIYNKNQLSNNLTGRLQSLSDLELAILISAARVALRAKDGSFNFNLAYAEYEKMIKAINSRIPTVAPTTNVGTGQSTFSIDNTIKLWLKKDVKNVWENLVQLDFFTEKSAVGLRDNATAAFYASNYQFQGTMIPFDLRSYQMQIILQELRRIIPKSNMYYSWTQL

These are yes or no findings as the source states them, for the method shown. Some entries that bind do so weakly or less than the wild type. Where a sequence is shown, tags or fusion partners need not be part of it.

B1: Pch2 full length (yeast two-hybrid fusion) (protein, UniProt P38126 1-564)
chain: MSYIVDLQVRGSSLRVIKCMFREDEQISSLHSGSDSKQNSNKKLGEFLNLLKAVVKRKLESFPKDRLKTSIITGQELMREGQGSIEIKDPPTEAQQHLIRSLAKVLLHQFSSINGKVNTVNEGQDNLFLSLFVKKISIEQQSTSHVSIKLNFHEKINLGQHIDSILDSEETNESDTYHMGSVDEFIIYPFCCLEEQDELKNGSILSTEFDKIDLELDEDDGFEGETLNNCINSVGNFDIPLSKQTLNLVNISYLPGTTFEGQWESLYFGNNIKERLYSYATISLKIARFKQTGDSNQEDITTLITNNKLLLVHGPPGTGKTTLCKALCQKLSVRREFSDGSDTIDTNYKGIIIELSCARIFSKWFGESSKNISIVFKDIEELLKVNEGRGIFICLLIDEVEAIASSRTNLSSRNESTDGIRVVNTLLTQLDRLKKYHNFLALATSNLLDSLDDAFVDRADGVFYVGNPTAEGILHILKVCIEEMITSGIILFHARSTGVKFFNKYQDILRKIAIKCSTVDISGRTIRKLPLMCLSEYFRTFPVDDDEFVLALAMSARKLSAARK
On to B1, for which the values for the binding entry in test [1], in test [2] and in test [3] were “binds”, “no binding” and “no binding”, respectively.
